By UniProt entry, the sequences of proteins in these tests, tags left out.
UniProt P17480: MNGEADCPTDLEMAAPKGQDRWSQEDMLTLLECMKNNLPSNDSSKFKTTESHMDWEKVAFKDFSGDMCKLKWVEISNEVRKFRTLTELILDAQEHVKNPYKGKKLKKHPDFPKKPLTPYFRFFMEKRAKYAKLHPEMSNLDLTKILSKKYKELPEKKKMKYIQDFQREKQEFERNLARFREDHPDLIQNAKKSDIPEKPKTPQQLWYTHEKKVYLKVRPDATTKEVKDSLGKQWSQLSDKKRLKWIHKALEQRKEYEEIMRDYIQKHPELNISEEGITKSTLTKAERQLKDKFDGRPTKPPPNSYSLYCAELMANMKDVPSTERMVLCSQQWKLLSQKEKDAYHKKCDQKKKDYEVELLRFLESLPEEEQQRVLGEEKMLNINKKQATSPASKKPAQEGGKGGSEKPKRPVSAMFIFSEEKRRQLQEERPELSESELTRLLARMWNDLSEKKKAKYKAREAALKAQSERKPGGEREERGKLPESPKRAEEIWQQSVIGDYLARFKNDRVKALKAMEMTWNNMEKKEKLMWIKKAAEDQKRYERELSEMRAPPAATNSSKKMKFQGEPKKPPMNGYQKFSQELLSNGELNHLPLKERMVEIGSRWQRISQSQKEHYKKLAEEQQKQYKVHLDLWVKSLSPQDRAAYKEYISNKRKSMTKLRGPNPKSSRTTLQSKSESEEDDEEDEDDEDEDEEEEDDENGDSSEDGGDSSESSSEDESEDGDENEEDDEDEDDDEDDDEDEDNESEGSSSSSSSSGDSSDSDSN
UniProt O95602: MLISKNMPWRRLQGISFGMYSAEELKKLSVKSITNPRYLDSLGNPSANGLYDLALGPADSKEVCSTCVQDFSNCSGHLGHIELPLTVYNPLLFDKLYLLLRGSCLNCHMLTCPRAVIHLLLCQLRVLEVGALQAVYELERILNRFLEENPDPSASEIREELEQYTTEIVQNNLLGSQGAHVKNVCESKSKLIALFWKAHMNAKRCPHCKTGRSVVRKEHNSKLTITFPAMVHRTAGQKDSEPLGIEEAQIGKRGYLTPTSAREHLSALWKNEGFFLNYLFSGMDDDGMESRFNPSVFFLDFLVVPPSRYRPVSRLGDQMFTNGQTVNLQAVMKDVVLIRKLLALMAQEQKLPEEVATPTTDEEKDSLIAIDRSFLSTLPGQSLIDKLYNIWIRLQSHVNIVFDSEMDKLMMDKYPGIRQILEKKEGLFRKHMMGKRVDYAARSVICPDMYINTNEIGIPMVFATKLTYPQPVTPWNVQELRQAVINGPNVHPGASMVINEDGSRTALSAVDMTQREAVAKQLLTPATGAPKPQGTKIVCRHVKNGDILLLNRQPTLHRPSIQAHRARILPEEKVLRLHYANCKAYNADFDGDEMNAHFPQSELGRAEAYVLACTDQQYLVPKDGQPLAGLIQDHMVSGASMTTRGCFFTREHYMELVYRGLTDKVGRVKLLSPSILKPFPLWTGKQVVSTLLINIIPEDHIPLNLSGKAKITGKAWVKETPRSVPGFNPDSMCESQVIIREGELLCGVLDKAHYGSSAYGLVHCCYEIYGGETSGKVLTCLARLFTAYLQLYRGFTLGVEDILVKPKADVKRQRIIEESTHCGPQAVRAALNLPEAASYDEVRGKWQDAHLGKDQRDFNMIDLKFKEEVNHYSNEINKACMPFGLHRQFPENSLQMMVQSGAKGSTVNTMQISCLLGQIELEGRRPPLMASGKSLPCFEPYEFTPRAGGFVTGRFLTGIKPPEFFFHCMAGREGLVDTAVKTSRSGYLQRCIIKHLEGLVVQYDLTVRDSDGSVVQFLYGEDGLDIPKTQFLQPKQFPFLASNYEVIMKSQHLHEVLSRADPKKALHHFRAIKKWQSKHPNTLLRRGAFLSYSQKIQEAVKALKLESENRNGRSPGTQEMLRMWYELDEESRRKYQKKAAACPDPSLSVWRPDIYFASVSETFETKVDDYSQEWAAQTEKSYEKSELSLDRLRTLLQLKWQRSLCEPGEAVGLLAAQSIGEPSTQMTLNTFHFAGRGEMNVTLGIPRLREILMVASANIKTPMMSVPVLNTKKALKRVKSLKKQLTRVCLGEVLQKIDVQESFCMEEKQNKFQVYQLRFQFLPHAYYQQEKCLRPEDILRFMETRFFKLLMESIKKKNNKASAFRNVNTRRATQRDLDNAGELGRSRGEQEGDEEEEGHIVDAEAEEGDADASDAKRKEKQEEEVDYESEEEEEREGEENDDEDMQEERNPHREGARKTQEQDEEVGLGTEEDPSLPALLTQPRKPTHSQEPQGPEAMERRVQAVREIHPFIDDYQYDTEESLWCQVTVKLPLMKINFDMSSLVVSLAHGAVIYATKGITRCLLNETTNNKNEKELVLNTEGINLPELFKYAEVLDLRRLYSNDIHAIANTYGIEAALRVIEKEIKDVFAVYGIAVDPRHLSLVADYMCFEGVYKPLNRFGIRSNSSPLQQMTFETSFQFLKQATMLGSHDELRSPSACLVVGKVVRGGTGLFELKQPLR
UniProt O60264: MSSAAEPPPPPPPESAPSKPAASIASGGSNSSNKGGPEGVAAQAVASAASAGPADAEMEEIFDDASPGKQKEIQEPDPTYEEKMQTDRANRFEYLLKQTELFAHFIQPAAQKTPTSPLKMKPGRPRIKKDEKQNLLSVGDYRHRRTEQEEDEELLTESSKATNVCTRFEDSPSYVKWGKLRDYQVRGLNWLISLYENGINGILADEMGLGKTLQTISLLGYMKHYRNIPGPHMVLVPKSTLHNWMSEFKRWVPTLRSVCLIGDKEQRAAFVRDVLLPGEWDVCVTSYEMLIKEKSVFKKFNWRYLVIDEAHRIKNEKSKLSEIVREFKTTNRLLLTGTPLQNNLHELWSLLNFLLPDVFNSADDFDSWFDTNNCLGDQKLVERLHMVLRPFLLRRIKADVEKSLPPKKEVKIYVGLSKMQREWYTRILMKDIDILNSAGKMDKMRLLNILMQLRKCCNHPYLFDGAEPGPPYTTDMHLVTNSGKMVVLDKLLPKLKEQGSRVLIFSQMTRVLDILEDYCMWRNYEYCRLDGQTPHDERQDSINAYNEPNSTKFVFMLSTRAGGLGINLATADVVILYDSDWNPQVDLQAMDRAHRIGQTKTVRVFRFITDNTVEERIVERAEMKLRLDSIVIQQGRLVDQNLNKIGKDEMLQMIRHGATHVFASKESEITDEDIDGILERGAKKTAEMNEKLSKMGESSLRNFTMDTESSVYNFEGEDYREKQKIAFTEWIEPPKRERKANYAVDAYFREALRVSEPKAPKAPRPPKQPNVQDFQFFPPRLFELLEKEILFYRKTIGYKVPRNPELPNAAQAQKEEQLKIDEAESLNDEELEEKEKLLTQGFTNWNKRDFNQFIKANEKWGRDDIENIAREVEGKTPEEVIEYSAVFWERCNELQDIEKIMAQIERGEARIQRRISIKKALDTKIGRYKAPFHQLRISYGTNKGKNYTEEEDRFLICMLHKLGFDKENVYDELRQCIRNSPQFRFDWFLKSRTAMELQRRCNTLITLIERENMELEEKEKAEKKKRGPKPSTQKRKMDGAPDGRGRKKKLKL
UniProt Q16637: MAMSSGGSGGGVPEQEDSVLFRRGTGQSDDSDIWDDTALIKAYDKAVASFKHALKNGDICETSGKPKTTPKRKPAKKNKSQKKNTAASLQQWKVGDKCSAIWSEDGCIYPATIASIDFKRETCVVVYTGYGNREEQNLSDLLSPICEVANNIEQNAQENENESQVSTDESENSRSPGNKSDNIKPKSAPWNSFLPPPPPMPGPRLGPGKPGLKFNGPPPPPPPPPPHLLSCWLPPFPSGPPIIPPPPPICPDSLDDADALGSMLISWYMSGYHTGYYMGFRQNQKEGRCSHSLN
UniProt O14893: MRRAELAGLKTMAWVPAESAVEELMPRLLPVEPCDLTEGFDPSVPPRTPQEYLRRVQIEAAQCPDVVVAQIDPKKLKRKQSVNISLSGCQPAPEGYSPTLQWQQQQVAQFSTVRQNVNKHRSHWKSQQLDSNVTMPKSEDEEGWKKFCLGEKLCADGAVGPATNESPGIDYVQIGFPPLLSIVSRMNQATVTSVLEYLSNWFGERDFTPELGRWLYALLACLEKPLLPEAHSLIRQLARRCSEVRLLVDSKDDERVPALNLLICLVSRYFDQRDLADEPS
UniProt Q8TEQ6: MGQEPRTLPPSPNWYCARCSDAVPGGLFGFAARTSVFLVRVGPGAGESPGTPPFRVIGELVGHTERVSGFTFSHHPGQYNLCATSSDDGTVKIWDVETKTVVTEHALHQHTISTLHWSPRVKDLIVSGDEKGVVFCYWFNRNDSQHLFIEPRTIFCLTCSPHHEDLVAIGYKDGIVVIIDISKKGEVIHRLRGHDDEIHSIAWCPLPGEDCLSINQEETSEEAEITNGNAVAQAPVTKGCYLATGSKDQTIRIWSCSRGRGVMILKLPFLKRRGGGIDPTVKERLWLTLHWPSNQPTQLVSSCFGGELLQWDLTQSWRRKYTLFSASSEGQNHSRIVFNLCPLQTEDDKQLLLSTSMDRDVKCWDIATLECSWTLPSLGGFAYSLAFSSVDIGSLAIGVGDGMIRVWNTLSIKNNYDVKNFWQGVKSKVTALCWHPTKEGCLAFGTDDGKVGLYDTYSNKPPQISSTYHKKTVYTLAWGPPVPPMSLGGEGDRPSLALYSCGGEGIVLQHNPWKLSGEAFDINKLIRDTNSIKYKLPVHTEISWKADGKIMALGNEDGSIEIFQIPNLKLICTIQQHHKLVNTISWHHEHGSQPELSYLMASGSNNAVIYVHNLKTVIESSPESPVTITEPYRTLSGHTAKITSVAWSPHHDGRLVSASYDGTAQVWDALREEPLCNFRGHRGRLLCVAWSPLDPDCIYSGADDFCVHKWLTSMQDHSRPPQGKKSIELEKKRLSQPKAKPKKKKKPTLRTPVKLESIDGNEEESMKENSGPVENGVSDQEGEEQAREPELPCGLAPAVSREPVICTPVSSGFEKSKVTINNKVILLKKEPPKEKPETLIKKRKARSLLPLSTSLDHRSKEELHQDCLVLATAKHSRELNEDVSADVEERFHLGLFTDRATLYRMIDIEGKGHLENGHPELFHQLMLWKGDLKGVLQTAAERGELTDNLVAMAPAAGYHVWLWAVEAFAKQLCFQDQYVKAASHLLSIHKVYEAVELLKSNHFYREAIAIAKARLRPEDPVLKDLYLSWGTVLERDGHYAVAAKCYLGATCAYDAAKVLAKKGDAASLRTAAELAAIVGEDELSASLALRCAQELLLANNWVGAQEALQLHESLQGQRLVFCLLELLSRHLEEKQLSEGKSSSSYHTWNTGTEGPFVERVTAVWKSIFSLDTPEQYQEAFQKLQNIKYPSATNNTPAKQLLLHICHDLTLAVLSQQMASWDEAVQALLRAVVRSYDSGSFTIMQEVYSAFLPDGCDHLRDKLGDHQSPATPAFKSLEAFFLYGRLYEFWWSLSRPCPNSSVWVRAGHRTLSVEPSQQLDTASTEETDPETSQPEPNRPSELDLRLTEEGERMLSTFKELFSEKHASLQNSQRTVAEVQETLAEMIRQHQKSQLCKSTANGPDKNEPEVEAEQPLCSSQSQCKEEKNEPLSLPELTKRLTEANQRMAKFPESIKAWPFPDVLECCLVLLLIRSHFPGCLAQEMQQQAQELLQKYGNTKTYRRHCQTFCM

According to article PMC3636044:

B1: TCOF1 (Treacle) (protein, UniProt Q13428 1-1488)
chain: MAEARKRRELLPLIYHHLLRAGYVRAAREVKEQSGQKCFLAQPVTLLDIYTHWQQTSELGRKRKAEEDAALQAKKTRVSDPISTSESSEEEEEAEAETAKATPRLASTNSSVLGADLPSSMKEKAKAETEKAGKTGNSMPHPATGKTVANLLSGKSPRKSAEPSANTTLVSETEEEGSVPAFGAAAKPGMVSAGQADSSSEDTSSSSDETDVEGKPSVKPAQVKASSVSTKESPARKAAPAPGKVGDVTPQVKGGALPPAKRAKKPEEESESSEEGSESEEEAPAGTRSQVKASEKILQVRAASAPAKGTPGKGATPAPPGKAGAVASQTKAGKPEEDSESSSEESSDSEEETPAAKALLQAKASGKTSQVGAASAPAKESPRKGAAPAPPGKTGPAVAKAQAGKREEDSQSSSEESDSEEEAPAQAKPSGKAPQVRAASAPAKESPRKGAAPAPPRKTGPAAAQVQVGKQEEDSRSSSEESDSDREALAAMNAAQVKPLGKSPQVKPASTMGMGPLGKGAGPVPPGKVGPATPSAQVGKWEEDSESSSEESSDSSDGEVPTAVAPAQEKSLGNILQAKPTSSPAKGPPQKAGPVAVQVKAEKPMDNSESSEESSDSADSEEAPAAMTAAQAKPALKIPQTKACPKKTNTTASAKVAPVRVGTQAPRKAGTATSPAGSSPAVAGGTQRPAEDSSSSEESDSEEEKTGLAVTVGQAKSVGKGLQVKAASVPVKGSLGQGTAPVLPGKTGPTVTQVKAEKQEDSESSEEESDSEEAAASPAQVKTSVKKTQAKANPAAARAPSAKGTISAPGKVVTAAAQAKQRSPSKVKPPVRNPQNSTVLARGPASVPSVGKAVATAAQAQTGPEEDSGSSEEESDSEEEAETLAQVKPSGKTHQIRAALAPAKESPRKGAAPTPPGKTGPSAAQAGKQDDSGSSSEESDSDGEAPAAVTSAQVIKPPLIFVDPNRSPAGPAATPAQAQAASTPRKARASESTARSSSSESEDEDVIPATQCLTPGIRTNVVTMPTAHPRIAPKASMAGASSSKESSRISDGKKQEGPATQVSKKNPASLPLTQAALKVLAQKASEAQPPVARTQPSSGVDSAVGTLPATSPQSTSVQAKGTNKLRKPKLPEVQQATKAPESSDDSEDSSDSSSGSEEDGEGPQGAKSAHTLGPTPSRTETLVEETAAESSEDDVVAPSQSLLSGYMTPGLTPANSQASKATPKLDSSPSVSSTLAAKDDPDGKQEAKPQQAAGMLSPKTGGKEAASGTTPQKSRKPKKGAGNPQASTLALQSNITQCLLGQPWPLNEAQVQASVVKVLTELLEQERKKVVDTTKESSRKGWESRKRKLSGDQPAARTPRSKKKKKLGAGEGGEASVSPEKTSTTSKGKAKRDKASGDVKEKKGKGSLGSQGAKDEPEEELQKGMGTVEGGDQSNPKSKKEKKKSDKRKKDKEKKEKKKKAKKASTKDSESPSQKKKKKKKKTAEQTV
B2: WSTF (Williams syndrome transcription factor) (protein, UniProt Q9UIG0 1-1483)
chain: MAPLLGRKPFPLVKPLPGEEPLFTIPHTQEAFRTREEYEARLERYSERIWTCKSTGSSQLTHKEAWEEEQEVAELLKEEFPAWYEKLVLEMVHHNTASLEKLVDTAWLEIMTKYAVGEECDFEVGKEKMLKVKIVKIHPLEKVDEEATEKKSDGACDSPSSDKENSSQIAQDHQKKETVVKEDEGRRESINDRARRSPRKLPTSLKKGERKWAPPKFLPHKYDVKLQNEDKIISNVPADSLIRTERPPNKEIVRYFIRHNALRAGTGENAPWVVEDELVKKYSLPSKFSDFLLDPYKYMTLNPSTKRKNTGSPDRKPSKKSKTDNSSLSSPLNPKLWCHVHLKKSLSGSPLKVKNSKNSKSPEEHLEEMMKMMSPNKLHTNFHIPKKGPPAKKPGKHSDKPLKAKGRSKGILNGQKSTGNSKSPKKGLKTPKTKMKQMTLLDMAKGTQKMTRAPRNSGGTPRTSSKPHKHLPPAALHLIAYYKENKDREDKRSALSCVISKTARLLSSEDRARLPEELRSLVQKRYELLEHKKRWASMSEEQRKEYLKKKREELKKKLKEKAKERREKEMLERLEKQKRYEDQELTGKNLPAFRLVDTPEGLPNTLFGDVAMVVEFLSCYSGLLLPDAQYPITAVSLMEALSADKGGFLYLNRVLVILLQTLLQDEIAEDYGELGMKLSEIPLTLHSVSELVRLCLRRSDVQEESEGSDTDDNKDSAAFEDNEVQDEFLEKLETSEFFELTSEEKLQILTALCHRILMTYSVQDHMETRQQMSAELWKERLAVLKEENDKKRAEKQKRKEMEAKNKENGKVENGLGKTDRKKEIVKFEPQVDTEAEDMISAVKSRRLLAIQAKKEREIQEREMKVKLERQAEEERIRKHKAAAEKAFQEGIAKAKLVMRRTPIGTDRNHNRYWLFSDEVPGLFIEKGWVHDSIDYRFNHHCKDHTVSGDEDYCPRSKKANLGKNASMNTQHGTATEVAVETTTPKQGQNLWFLCDSQKELDELLNCLHPQGIRESQLKERLEKRYQDIIHSIHLARKPNLGLKSCDGNQELLNFLRSDLIEVATRLQKGGLGYVEETSEFEARVISLEKLKDFGECVIALQASVIKKFLQGFMAPKQKRRKLQSEDSAKTEEVDEEKKMVEEAKVASALEKWKTAIREAQTFSRMHVLLGMLDACIKWDMSAENARCKVCRKKGEDDKLILCDECNKAFHLFCLRPALYEVPDGEWQCPACQPATARRNSRGRNYTEESASEDSEDDESDEEEEEEEEEEEEEDYEVAGLRLRPRKTIRGKHSVIPPAARSGRRPGKKPHSTRRSQPKAPPVDDAEVDELVLQTKRSSRRQSLELQKCEEILHKIVKYRFSWPFREPVTRDEAEDYYDVITHPMDFQTVQNKCSCGSYRSVQEFLTDMKQVFTNAEVYNCRGSHVLSCMVKTEQCLVALLHKHLPGHPYVRRKRKKFPDRLAEDEGDSEPEAVGQSRGRRQKK
B3: Gemin8 (protein, UniProt Q9NWZ8 1-242)
chain: MAAVKASTSKATRPWYSHPVYARYWQHYHQAMAWMQSHHNAYRKAVESCFNLPWYLPSALLPQSSYDNEAAYPQSFYDHHVAWQDYPCSSSHFRRSGQHPRYSSRIQASTKEDQALSKEEEMETESDAEVECDLSNMEITEELRQYFAETERHREERRRQQQLDAERLDSYVNADHDLYCNTRRSVEAPTERPGERRQAEMKRLYGDSAAKIQAMEAAVQLSFDKHCDRKQPKYWPVIPLKF

What follows are molecules tested against mCherry–UBF1 (upstream binding factor 1, mCherry-tagged) (human) (UniProt P17480) (assay: affinity purification with mass spectrometry; triple SILAC; nuclei of HeLa (control) and HeLa^mCherry–UBF1-PR cells, untreated or treated with low-concentration Actinomycin-D, solubilised in RIPA buffer, lysates mixed 1:1:1; mCherry–UBF1 captured with RFP-TRAP_A; LC-MS/MS, MaxQuant).

| Molecule | binding |
| --- | --- |
| POLR1A (polymerase (RNA) I polypeptide A) (from UniProt O95602 1-1720) | binds |
| SMARCA5/SNF2h (SWI/SNF related, matrix associated, actin dependent regulator of chromatin, subfamily a, member 5) (from UniProt O60264 1-1052) | binds |
| B1 | binds |
| B2 | binds |

What follows are molecules tested against GFP–SMN1 (survival of motor neurons protein, GFP-tagged) (human) (UniProt Q16637) (assay: affinity purification with mass spectrometry; triple SILAC; nuclei of U2OS (control), U2OS^GFP–SMN1 (over-expression) and U2OS^GFP–SMN1-PR (replacement) cells solubilised in RIPA buffer, lysates mixed 1:1:1; GFP–SMN1 captured with GFP-TRAP_A; LC-MS/MS, MaxQuant).

| Molecule | binding |
| --- | --- |
| Gemin2 (from UniProt O14893 1-280) | binds |
| Gemin5 (from UniProt Q8TEQ6 1-1508) | binds |
| B3 | binds |

Results are given in words; binding and its absence hold for the method and conditions named. Binding seen in cells or lysates may run through a third protein. Here binding means that the protein was enriched with, or labelled near, the bait; the list need not be complete.
